Measured values taken from PubChem BioAssay AID1347423 (Functional Genomics Laboratory (NCATS/FGL), 2020).
The whole screen tested about 52,000 sequences, of which about 210 (0.4%) were called active.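 The calls were made as follows: active = gene whose silencing raises cell survival under the drug, median off-target-corrected z-score across its silencing RNAs 2 or more; inactive = the rest.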 Some of the results follow.

Assay: Resistance to Poly (ADP-Ribose) Polymerase inhibitor: Gene Identification via Genome-wide siRNA Screen
Conditions: mouse BRCA2 R2336H ES cells, olaparib, CellTiter-Glo viability; hits give high values
Procedure, shortened: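 Mouse BRCA2 R2336H ES cells were reverse-transfected with siRNA (20 nM final), treated at 48 h with 500 nM olaparib, and read by CellTiter-Glo after 72 h. Scores: MAD-based z per siRNA, median per gene, seed off-target correction.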
In the case of GGAUAAAGCCACAUUUGGUTT against Apoh, the z-score is reported as inactive: -0.39. In the case of GGCUUUAGUUCUUUUGUAATT against Mmd, the z-score is reported as inactive: 2.18. For GGUGGGCAUCUGACAACAUTT against Set, the z-score was inactive: 2.51. In the case of GCUACUUUAGUGGUUUCACTT against Ets1, the z-score is reported as inactive: 0.319. In the case of GGUGCACACCAAUGUUCUGTT against Efemp2, the z-score is reported as inactive: -0.0535. With CGAAGGUACUAUGUAUUUUTT against Tbce the z-score was inactive: -1.41. In the case of “GUCCAUACUUUGGUUUUCCTT against D630024D12Rik”, the z-score is reported as inactive: 1.52. With CCAUCAUGACGGUUCCCUATT against Mrgpra5 the z-score was inactive: -1.4. In the case of GGGAGAGUGUUUGUUCAUUTT against Dusp1, the z-score is reported as inactive: -0.188. In the case of GCUUAUGUCGAAUGAUAGCTT against Idb2, the z-score is reported as inactive: 0.794. For GGGCCUGAUUUCCUAUGCUTT against Pglyrp4, the z-score was inactive: 0.548. In the case of GGACAUAGUAUACGAAAAUTT against Znf341, the z-score is reported as inactive: 0.632. In the case of “GGGUGAAAUAUUCUAUUCATT against A230078I01Rik”, the z-score is reported as inactive: 0.376. For CCAGACUUGGGUGAAUGAATT against Olfr450, the z-score was inactive: -0.94. In the case of GGAAGCCAUUAUACAUGACTT against Uvrag1, the z-score is reported as inactive: -0.513. With “CGUGAGACCCUCAAGCUUGTT against 1700012H17Rik” the z-score was inactive: 0.815. With CCUGCCUUUGUAAAAGCCGTT against Bid the z-score was inactive: -0.0202. In the case of GCAAACUAGAUAUCUAGGGTT against Lmx1a, the z-score is reported as inactive: -0.579. With GGUUCCUAGUUACAACAUCTT against Pcdhga12 the z-score was inactive: 1.21. For GCGUAUUACACCCUUGGAATT against Terf1, the z-score was inactive: 0.0138. With CCUGUGAGGCCAUUGAUUCTT against Lpd the z-score was inactive: -0.359. For CCAAAACCUCAUGCUGAAATT against BC021442, the z-score was inactive: 1.83. In the case of GCAGCACAUAGAAACGUGUTT against Fnbp1, the z-score is reported as inactive: 2.48. With “GGGCUAGCCUAGAUAAAAATT against 5730555F13Rik” the z-score was inactive: -1.57. For GCCUAAGAGUUUCAAUAAGTT against Tgtp, the z-score was inactive: 0.07. With GGCAUCUCCAUCAAUACAGTT against Pdcl the z-score was inactive: -0.472. With CGGAAAUCAACAUUGCGUUTT against Stxbp1 the z-score was inactive: -0.443. For GGGAAUUGCCUCAGCUAAGTT against Men1, the z-score was inactive: 1.18. For “GGACCUGUGGAACCAUUCCTT against E430025L02Rik”, the z-score was inactive: -0.0421. For GGCUAAGCUAUACCACCAUTT against Cckbr, the z-score was inactive: -0.626. For GCUGUGUUAGGAUUGUCCATT against Olfr553, the z-score was inactive: -0.418. For GGUCUAAUCAAUGUUUUGCTT against MGC67181, the z-score was inactive: 1.02. With UGUUGGUGGGCCUUAUAUUTT against Olfr1153 the z-score was inactive: 1.12. For CGGUGGUGUGAAGCCCAAUTT against Gm424, the z-score was inactive: -1.07. For “GGCCUUCCAUACUACAACUTT against A230042K10Rik”, the z-score was inactive: -0.368. In the case of CCAUUUCUUAGUGGGACUATT against Ogdh, the z-score is reported as inactive: -0.867. In the case of GCACUUGUGGAUCAAUACCTT against Efhd1, the z-score is reported as inactive: 0.871. For “GGAAUUAAGAAGACAAUUCTT against 4921531G14Rik”, the z-score was inactive: 0.229. For GGGUUAGCGCAUAAAGACATT against Fv4, the z-score was inactive: 0.8. In the case of “CGUAGGUUCUAACGAUUCCTT against C730034F03Rik”, the z-score is reported as inactive: 0.151. For GGAAGUAUUAAUGUACAACTT against Sc4mol, the z-score was inactive: -0.685. With GCAACGCAACAGCAUUCCUTT against Dscr2 the z-score was inactive: 0.31. In the case of GGUGGAAAAGCAAUUCCUUTT against Mcpt5, the z-score is reported as inactive: -0.0363. For CCAGGUUCUGACCACCUACTT against Htr3a, the z-score was inactive: 0.237. With CCUGAUAAACUCUAGUGUGTT against Six5 the z-score was inactive: -1.16. With GCAUAUUACACAGCACUAGTT against Itgbl1 the z-score was inactive: -0.316. For “CCGAGAACCGAACUUACCATT against B930006L02Rik”, the z-score was inactive: -0.372. With “CGUGCUAGUGACCAUUUACTT against 3732412D22Rik” the z-score was inactive: -0.014. With GCCUGUUUGGUAUUCUUCCTT against Olfr832 the z-score was inactive: 0.964. With GCACCACUAAUCGAGUUGGTT against Pigf the z-score was inactive: 0.527. With GGACUCUGGAACAAGUCACTT against Slc2a8 the z-score was inactive: 1.53. With “GGUUCCUGUGAAUUAUGUGTT against 1700054O13Rik” the z-score was inactive: 1.07. With GGUGGAAAGAUUAUCUUCATT against Dmc1h the z-score was inactive: -2.03. For GGAGGAAGACGAGUUCAUUTT against Rassf2, the z-score was inactive: 0.183. In the case of GCGAUUUCUGGACAGCAAUTT against Cyp2r1, the z-score is reported as inactive: -0.447. With UGAUUAUUGACCUGUUAGUTT against Olfr1193 the z-score was inactive: -0.949. In the case of GGCCUGAAGGGAAAGAUUUTT against Rbbp4, the z-score is reported as inactive: -0.677. With GGAGAAAAGAGGCUUCCAGTT against Lad1 the z-score was inactive: -1.06. For “GGUUAACACUGGACGUGGUTT against 5730409F24Rik”, the z-score was inactive: 1.22. For GUCUUCAACUCAGUUCAGUTT against Wap, the z-score was inactive: -0.295. In the case of GGUUGACCAGAUUGAGAAATT against Sfrs2ip, the z-score is reported as inactive: -0.374. With GGAUGGUCAAACACGUCACTT against Pla2g2c the z-score was inactive: 0.342. With GGAGUUGCUGUACAACAAGTT against Ndufs8 the z-score was inactive: 2.08. For “GGUGAUGAUGUCCAGAAGUTT against 4932416A15”, the z-score was inactive: 0.59. With GGGACUGAUCGGUACCGAATT against Igsf8 the z-score was inactive: 1.09. In the case of GCCUGUGGCUUAAACUUCATT against AI427515, the z-score is reported as inactive: 0.325. With “CCUAGGUUUGAAGACUCCCTT against 2900006N09Rik” the z-score was inactive: 1.03. In the case of “GGAUGAUUACAGAUAUGAUTT against 2310043N13Rik”, the z-score is reported as inactive: 0.0508. In the case of “GGCUCUCUGAGGAUUCGAATT against 4930544M13Rik”, the z-score is reported as inactive: -0.0503. With “GGAUCCUGAAACCAUGAGCTT against E130306I01Rik” the z-score was inactive: 0.928. For GGCUAAAUAUUACCACUGATT against Dyrk3, the z-score was inactive: -0.964. In the case of “GCAUGGUAUUUCAUAAAGCTT against 6530418L21Rik”, the z-score is reported as inactive: 0.414. For GGACUUUUCUGCUAUUUACTT against Kcnh2, the z-score was inactive: 0.361. With “GCAUUUAUGGAGUACUUACTT against 2810024B22Rik” the z-score was inactive: 1.1. For GGACAAAAGACAAAUACCGTT against Cdx2, the z-score was inactive: -1.42. For CCCGUUCGUGCAUGAGUUATT against AI505034, the z-score was inactive: 0.686. For “CCAUUGAUCCCAUGAUCUUTT against 1110037N09Rik”, the z-score was inactive: 0.163. In the case of CCGUGCAACAAAAACUGGATT against Tnpo1, the z-score is reported as inactive: 0.68. In the case of “GGGCAUUGUUGUUUCUAUUTT against 2810489O06Rik”, the z-score is reported as inactive: 0.685. In the case of GGUUGGACAAAAAGAAUCUTT against Ifngr1, the z-score is reported as inactive: 1.24. With GGUGUUGGAUUCCAAUCCCTT against Ube1dc1 the z-score was inactive: -0.00137. In the case of CCUUGGACUAUGGCAAAAATT against Neurod6, the z-score is reported as inactive: -0.626. With CGCAUACUGUGGAAUAGUUTT against Spag4 the z-score was inactive: 0.371. For GGCUUUUAGUACUGAUAGUTT against Neu3, the z-score was inactive: -0.265. In the case of CCAUUAUAACUGUAUCUGATT against Gm609, the z-score is reported as inactive: 0.0458. For GGCCUUUUCAACUUGUGGGTT against Olfr1048, the z-score was inactive: 0.715. With “GGCUUAGGAAUCUAGGACUTT against D830044D21Rik” the z-score was inactive: -2.24. In the case of “GGUACAAUGAAAGUCUCACTT against A230103N10Rik”, the z-score is reported as inactive: 0.873. In the case of CGAAAGGUCAAAUUAACAGTT against Serpinb5, the z-score is reported as inactive: 0.304. With GGGAACAAAAUCCAUGACGTT against Tdo2 the z-score was inactive: -1.36. For CCGAAUCUCUCACGUGCCATT against Rtn4r, the z-score was inactive: 1.21. In the case of GGUCUAGCUCACAUCACACTT against C2, the z-score is reported as inactive: 2.31. For “GCUGUCAAACUGCCUCAACTT against 1700020H15”, the z-score was inactive: -0.472. For “GGAACAUGGAGAAUGUCUATT against 4930465P12Rik”, the z-score was inactive: -1.35. For “GCCAGUCACCAAUUCCAAATT against D3Ertd194e”, the z-score was inactive: -0.602. With GGUUUUCCAAGGUGGGCAUTT against Rp1hl1 the z-score was inactive: -1.94. With GGAAUUGCUAUCUUUUGCATT against Itm1 the z-score was inactive: 0.168. With CCUAGUGACUUUAAUGGGATT against Mrgprf the z-score was inactive: 0.248. For “GCAUAUAACCGAGUUGAUUTT against E030027H19Rik”, the z-score was inactive: 0.696. With GGUACUUCCUACCUAACAGTT against Nipa1 the z-score was inactive: 0.411. With CGACCUAAUGACAUUAUCATT against Egln3 the z-score was inactive: 0.342. With “GGACCUCUUCAAAACCACCTT against E230022H04Rik” the z-score was inactive: -0.472. For GGUGGAAAUCGAUAAAACUTT against Slc15a1, the z-score was inactive: -0.613.
